# Reference: article PMC3441222
# Protein sequences, listed by entry. Tags and fused reporters are not part of them.
# UniProt Q9VSL8: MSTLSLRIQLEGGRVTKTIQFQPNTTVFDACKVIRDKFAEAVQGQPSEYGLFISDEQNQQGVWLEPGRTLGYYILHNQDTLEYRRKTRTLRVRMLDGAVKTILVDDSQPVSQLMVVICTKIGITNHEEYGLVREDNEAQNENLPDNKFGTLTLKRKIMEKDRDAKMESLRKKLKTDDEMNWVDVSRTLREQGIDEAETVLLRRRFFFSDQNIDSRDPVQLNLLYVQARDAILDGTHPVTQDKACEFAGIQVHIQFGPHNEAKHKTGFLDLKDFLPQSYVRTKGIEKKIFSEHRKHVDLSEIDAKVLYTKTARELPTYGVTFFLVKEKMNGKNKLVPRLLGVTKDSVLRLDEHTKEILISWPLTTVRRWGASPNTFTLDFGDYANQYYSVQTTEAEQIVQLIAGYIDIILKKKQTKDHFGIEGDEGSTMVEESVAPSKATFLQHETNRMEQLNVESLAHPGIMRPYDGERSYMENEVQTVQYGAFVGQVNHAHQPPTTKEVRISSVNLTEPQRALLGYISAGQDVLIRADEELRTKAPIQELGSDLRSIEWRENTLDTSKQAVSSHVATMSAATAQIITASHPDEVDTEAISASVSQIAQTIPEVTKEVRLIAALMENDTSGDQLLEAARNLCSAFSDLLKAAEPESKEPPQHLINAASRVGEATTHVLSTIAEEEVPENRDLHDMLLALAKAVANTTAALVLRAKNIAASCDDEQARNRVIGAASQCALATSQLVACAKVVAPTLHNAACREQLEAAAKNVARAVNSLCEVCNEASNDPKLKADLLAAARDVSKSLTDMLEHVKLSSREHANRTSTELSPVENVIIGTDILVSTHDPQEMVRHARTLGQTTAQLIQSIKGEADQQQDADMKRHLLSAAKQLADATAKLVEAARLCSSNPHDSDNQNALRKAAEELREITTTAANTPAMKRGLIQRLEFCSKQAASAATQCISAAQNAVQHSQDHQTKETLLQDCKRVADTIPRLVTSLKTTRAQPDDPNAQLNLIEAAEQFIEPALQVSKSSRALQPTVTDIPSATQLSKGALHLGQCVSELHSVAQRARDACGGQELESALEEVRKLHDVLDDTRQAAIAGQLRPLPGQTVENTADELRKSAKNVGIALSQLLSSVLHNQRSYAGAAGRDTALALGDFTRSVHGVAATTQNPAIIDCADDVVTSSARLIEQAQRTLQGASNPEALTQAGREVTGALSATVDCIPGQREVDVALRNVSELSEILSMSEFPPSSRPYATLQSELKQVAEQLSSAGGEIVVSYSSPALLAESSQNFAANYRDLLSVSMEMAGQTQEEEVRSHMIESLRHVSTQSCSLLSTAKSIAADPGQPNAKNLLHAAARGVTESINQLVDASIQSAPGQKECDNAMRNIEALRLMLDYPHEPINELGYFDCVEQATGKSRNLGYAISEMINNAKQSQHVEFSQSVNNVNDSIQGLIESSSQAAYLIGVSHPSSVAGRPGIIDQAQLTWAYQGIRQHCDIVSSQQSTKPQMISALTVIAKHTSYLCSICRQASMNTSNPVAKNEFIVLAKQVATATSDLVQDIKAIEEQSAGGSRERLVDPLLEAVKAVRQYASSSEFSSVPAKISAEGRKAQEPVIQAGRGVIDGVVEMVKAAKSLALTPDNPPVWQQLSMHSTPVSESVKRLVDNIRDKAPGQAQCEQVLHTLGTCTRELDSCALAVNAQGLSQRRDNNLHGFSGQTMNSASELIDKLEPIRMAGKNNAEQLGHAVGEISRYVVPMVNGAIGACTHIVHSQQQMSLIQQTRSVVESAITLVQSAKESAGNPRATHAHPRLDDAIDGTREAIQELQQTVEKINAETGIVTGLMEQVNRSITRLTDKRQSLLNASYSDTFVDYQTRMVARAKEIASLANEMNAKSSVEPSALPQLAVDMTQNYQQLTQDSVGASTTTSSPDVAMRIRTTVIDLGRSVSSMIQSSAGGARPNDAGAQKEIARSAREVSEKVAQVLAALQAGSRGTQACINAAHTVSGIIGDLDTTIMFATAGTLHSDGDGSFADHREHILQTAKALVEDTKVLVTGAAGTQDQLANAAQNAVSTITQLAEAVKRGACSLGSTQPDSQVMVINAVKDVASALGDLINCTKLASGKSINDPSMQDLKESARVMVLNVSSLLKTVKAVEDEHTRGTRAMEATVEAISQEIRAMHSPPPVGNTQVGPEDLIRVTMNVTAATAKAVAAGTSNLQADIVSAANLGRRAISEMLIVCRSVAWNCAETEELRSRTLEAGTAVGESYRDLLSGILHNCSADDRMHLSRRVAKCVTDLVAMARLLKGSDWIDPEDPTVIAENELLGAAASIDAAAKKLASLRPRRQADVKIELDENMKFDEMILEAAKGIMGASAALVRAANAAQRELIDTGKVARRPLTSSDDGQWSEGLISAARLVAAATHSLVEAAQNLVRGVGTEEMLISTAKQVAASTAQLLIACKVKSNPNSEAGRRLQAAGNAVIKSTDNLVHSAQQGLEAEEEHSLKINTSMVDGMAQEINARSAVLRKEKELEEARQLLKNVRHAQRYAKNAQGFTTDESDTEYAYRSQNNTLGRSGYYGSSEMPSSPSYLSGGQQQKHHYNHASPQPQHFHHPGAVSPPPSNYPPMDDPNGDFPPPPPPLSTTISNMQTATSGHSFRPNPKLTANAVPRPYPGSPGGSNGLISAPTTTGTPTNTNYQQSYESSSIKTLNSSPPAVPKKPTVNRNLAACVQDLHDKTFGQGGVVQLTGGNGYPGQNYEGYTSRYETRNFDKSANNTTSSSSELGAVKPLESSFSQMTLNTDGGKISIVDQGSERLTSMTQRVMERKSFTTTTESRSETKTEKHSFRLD
# These are yes or no findings as the source states them, for the method shown. In cells and extracts the contact can be indirect. Some results given as binding are weak or reduced against the parent protein; the word gives no strength.
# Target: talin (Drosophila melanogaster (endogenous in Drosophila extracts)) (UniProt Q9VSL8)
# Assay: co-IP; Drosophila extract immunoprecipitated with 40 ug anti-talin antibody adsorbed to Protein A Sepharose; blot stained with anti-CalpB; lysis buffer 50 mM Tris pH 7.5, 150 mM NaCl, 10 mM EDTA, 0.1% Triton X-100, 0.01% beta-mercaptoethanol, protease inhibitors
binder,measurement,value
"CalpB (enzyme, UniProt Q9VT65 1-925) MYGIDNYPKNYHASGIGLVNLAALGYSKNEVSGGNEGGGAPKPKAGLYPSLPYPSSESVGGMPYVVKQTSHAQNASYAGPTMGMGMPVPEAPSAPAPYPSATPYPGSGLYPSLPSANVSSLPYPTAPMAPYPTGMPYPTGMPQPNLPYPAAPLAPYPSAMPGLPGMPMPYAPMPTSPAPQHNIGFPALPYPTAPPPESAPTQEEEPSVGVAELSFTSVKVPENQNMFWMGRKATSARQNSVSKGDFQSLRDSCLANGTMFEDPDFPATNASLMYSRRPDRYYEWLRPGDIADDPQFFVEGYSRFDVQQGELGDCWLLAAAANLTQDSTLFFRVIPPDQDFQENYAGIFHFKFWQYGKWVEVVIDDRLPTYNGELIYMHSTEKNEFWSALLEKAYAKLHGSYEALKGGTTCEAMEDFTGGVTEWYDIKEAPPNLFSIMMKAAERGSMMGCSLEPDPHVLEAETPQGLIRGHAYSITKVCLMDISTPNRQGKLPMIRMRNPWGNDAEWSGPWSDSSPEWRFIPEHTKEEIGLNFDRDGEFWMSFQDFLNHFDRVEICNLSPDSLTEDQQHSSRRKWEMSMFEGEWTSGVTAGGCRNFLETFWHNPQYIISLEDPDDEDDDGKCTAIVALMQKNRRSKRNVGIDCLTIGFAIYHLTDRDMQVKPQGLNFFKYRASVARSPHFINTREVCARFKLPPGHYLIVPSTFDPNEEGEFIIRVFSETRNNMEENDDEVGFGETDDRIAPSLPPPTPKEEDDPQRIALRRLFDSVAGSDEEVDWQELKRILDHSMRDVMVGSDGFSKDAVRSMVAMLDKDRSGRLGFEEFEALLTDIAKWRAVFKLYDTRRTGSIDGFHLRGALNSAGYHLNNRLLNALAHRYGSREGQIPFDDFLMCAIKVRTFIEMFRERDTDNSDTAFFNLDDWLERTIYS",binding,binds
